In one assay the target is T1, Shrm4-V5 (human) (UniProt Q9ULL8).
T1 sequence: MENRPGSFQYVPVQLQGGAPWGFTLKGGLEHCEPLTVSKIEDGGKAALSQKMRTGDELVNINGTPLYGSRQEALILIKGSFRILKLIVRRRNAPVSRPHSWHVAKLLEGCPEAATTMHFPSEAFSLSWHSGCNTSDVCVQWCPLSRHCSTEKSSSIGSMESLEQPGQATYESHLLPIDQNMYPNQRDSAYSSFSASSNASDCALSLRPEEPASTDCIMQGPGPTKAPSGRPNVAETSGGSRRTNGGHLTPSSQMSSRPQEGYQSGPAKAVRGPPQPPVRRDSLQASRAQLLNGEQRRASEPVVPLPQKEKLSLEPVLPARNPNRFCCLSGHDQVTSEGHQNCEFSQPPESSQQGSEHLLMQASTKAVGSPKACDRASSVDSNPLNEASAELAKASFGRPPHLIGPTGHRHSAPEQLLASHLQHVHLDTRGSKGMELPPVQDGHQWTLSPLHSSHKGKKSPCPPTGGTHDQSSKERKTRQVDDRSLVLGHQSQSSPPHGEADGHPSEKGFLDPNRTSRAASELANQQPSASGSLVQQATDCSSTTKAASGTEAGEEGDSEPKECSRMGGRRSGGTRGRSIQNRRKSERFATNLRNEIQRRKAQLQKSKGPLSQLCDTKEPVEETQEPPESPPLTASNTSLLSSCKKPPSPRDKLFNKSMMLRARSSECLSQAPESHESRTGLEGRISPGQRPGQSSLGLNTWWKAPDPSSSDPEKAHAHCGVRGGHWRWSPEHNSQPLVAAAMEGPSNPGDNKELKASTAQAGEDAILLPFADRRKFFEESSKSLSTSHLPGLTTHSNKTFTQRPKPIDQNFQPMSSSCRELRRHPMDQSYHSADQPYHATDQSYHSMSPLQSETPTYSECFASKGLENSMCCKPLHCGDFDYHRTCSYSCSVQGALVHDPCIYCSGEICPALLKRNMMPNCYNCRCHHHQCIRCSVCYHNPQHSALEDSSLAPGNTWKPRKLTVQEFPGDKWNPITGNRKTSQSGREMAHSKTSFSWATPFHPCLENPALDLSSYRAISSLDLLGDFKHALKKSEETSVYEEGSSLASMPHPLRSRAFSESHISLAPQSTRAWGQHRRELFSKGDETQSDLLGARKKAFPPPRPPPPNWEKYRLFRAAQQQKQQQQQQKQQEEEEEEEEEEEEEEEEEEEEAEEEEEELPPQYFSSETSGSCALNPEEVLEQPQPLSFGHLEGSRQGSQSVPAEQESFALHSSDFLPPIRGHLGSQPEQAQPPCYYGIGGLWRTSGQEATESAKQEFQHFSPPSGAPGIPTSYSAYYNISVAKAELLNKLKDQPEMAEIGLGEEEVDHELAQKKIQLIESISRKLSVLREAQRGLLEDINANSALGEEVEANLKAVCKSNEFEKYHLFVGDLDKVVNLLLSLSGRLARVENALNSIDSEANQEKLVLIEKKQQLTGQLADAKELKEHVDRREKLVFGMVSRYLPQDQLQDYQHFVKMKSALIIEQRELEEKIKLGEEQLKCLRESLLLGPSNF
As to the kind of experiment: co-IP; lysates of transfected HEK293 cells; antibody to the tag of Shrm4 (HA, GFP, V5) at 4 °C overnight, protein A-agarose, western blot. A general note: A western blot detects proteins with antibodies after separation by electrophoresis.

The target of assay [1] is T2, GST-PDZ (Shrm4-PDZ domain, aa 1–91) (human, UniProt Q9ULL8 1-91).
T2 construct: Shrm4 (Shroom4), encoded by KIAA1202, PDZ domain, aa 1-91; in pGEX-4T-1, which should put GST at the N-terminus; source: E. coli BL21, purified using standard procedures
T2 sequence (looked up): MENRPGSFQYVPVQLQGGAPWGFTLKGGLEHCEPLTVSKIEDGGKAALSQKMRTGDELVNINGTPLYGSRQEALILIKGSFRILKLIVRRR
As to the kind of experiment: pull-down; in vitro: purified His-tagged DIC incubated with GST-PDZ or mutant GST-PDZ (AA) for 3 h at room temperature, washed four times with PBS; western blot; both purified.

The target of assay [2] is T3, mutant GST-PDZ (AA) (Shrm4-PDZ domain K26G27/AA) (human) (UniProt Q9ULL8).
T3 sequence: T2 sequence (looked up) with K26A, G27A
The description is as above.

Assay [3] has as its target T4, Shrm4, endogenous in rat brain (rat (endogenous in brain)) (UniProt F1LVL5).
T4 sequence: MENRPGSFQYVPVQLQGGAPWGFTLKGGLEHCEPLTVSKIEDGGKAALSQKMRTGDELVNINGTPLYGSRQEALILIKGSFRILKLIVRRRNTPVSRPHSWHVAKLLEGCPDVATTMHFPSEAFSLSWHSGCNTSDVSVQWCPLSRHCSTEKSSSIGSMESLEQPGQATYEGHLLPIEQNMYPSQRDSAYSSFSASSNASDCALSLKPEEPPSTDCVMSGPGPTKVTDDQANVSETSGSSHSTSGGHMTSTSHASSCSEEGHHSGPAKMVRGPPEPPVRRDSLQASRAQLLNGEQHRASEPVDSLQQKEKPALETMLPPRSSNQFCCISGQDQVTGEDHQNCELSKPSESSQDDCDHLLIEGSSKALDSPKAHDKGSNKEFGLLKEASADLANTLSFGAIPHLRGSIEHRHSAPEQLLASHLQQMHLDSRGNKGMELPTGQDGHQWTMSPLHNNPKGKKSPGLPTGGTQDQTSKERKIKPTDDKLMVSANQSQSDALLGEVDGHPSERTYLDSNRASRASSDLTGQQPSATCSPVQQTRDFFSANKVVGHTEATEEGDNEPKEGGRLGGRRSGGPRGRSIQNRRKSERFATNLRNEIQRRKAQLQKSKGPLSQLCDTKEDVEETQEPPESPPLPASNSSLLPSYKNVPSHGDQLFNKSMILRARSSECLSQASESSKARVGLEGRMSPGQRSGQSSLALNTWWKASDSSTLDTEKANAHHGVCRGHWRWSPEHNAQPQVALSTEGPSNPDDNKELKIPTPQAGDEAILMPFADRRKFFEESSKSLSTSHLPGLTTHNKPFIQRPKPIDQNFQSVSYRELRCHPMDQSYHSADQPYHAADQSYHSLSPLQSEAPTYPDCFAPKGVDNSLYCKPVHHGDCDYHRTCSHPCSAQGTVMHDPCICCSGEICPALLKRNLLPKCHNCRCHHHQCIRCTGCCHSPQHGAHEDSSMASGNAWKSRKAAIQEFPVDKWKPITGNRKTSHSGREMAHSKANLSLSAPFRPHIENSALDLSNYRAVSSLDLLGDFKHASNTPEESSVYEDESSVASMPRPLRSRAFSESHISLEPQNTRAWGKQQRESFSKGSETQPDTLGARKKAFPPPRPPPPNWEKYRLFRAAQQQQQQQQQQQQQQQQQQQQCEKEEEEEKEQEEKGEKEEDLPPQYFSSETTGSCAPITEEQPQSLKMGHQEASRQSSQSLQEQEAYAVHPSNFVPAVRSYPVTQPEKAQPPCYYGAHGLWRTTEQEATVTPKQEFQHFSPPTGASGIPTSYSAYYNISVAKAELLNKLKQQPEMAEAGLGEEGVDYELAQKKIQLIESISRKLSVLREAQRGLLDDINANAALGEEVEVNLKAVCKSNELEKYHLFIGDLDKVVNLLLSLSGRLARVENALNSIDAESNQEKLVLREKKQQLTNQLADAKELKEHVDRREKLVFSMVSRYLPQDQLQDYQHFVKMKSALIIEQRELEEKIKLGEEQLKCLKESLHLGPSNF
As to the kind of experiment: co-IP; adult rat brain extracts (50 mM TRIS-HCl, 200 mM NaCl, 1 mM EDTA, 1% NP40, 1% Triton X-100, pH 7.4); antibody (anti-Shrm4 or anti-GABAAR δ) at 4 °C overnight, protein A-agarose, western blot.

For assay [4], the target named is T2, GST-PDZ (Shrm4-PDZ domain, aa 1–91). As to the kind of experiment: pull-down; GST fusion proteins of the Shrm4-PDZ domain on extracts of 18DIV rat cultured hippocampal neurons or rat brain; western blot; only the target purified.
The target in assay [5] is T5, GST-PDZΔ14 (Shrm4-PDZ domain without its first 14 amino acids) (human) (UniProt Q9ULL8).
T5 sequence: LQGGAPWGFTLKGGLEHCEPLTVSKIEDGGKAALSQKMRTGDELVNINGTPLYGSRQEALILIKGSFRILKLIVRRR
The description is as above.

Substitutions are numbered along the chain they refer to. Results are given in words; binding and its absence hold for the method and conditions named. For part of these data: Binding can be weak; no strength is given. For part of these data: Where a sequence is shown, tags or fusion partners need not be part of it. For part of these data: Binding seen in cells or lysates may run through a third protein.

The source of these data is PMC5343488, “Epilepsy and intellectual disability linked protein Shrm4 interaction with GABABRs shapes inhibitory neurotransmission” (Nature Communications, 2017).

Regarding GABAB1b-myc (receptor), the binding result with Shrm4-V5 (human) is on record as “binds”.

His-tagged IC-2C (DIC): the binding entry in assay [1] and in assay [2] was “binds” throughout.

With “dynein intermediate chain (DIC), endogenous in rat brain”, the binding entry is listed as “binds” in assay [3], “binds” in assay [4] and “no binding” in assay [5].
